From PubChem BioAssay AID1439 (NMMLSC, 2008)
Hit rate of the full screen: of about 220,000 compounds, about 770 (0.35%) were called active. The shares of active, inactive and inconclusive entries below differ from those in the screen. Cut-off read from the data, not from the text of the source: active = binding response below about 49% or above about 150%; inconclusive = no clear call, values can overlap the other calls; inactive = in between. Non-standard residues stand in square brackets, D forms with d. Residues, ends and D or L forms follow the SMILES beside them. NMeY = CN[C@@H](Cc1ccc(O)cc1)C(=O)O; NMeF = CN[C@@H](Cc1ccccc1)C(=O)O; 2Abz = Nc1ccccc1C(=O)O

Protein sequences, listed by entry. Tags and fused reporters are not part of them.
UniProt P09471, whole entry, looked up: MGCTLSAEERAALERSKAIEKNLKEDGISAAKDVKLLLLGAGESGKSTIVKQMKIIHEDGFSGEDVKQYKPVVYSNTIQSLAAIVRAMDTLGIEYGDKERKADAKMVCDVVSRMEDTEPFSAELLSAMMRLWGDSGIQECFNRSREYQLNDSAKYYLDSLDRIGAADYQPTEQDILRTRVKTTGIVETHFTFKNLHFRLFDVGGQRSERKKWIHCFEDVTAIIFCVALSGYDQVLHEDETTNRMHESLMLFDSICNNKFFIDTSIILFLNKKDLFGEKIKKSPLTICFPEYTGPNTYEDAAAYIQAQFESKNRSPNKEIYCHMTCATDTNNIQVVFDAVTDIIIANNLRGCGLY

The compounds below were run against Guanine nucleotide-binding protein G(o) subunit alpha (Homo sapiens) (UniProt P09471) (assay: RGS7-Galphao binding modulators, primary screen, biochemical, multiplexed bead flow cytometry (AID 1439;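 note: fluorescent Galphao held in activated GDP-AlF4 state binding bead-coupled RGS7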)). Conditions: at 10 µM, actives lie on both sides.

SMILES	binding response (% of control)
OCCSc1nc(-c2ccccc2)nc2c1CCC2	inactive: 88.8%
COC(=O)C(C)Sc1nc(N)c(NC(=O)c2ccco2)c(=O)[nH]1 (stereo not drawn)	inactive: 104%
CC(C)N(Cc1ccccc1)C(=O)Cn1c(=O)cnc2ccccc21	inconclusive: 50.4%
Cc1ccc2c(=O)[nH]c(Cc3ccccc3C(=O)O)nc2c1	inconclusive: 107%
COCCNC(=O)CSc1nccn1Cc1ccc2c(c1)OCO2	inconclusive: 101%
C/C(Cc1nnn(-c2cc(C)on2)n1)=N\O	inconclusive: 118%
O=C(CSc1nnc(C2CC2)n1Cc1ccco1)NCC(F)(F)F	inconclusive: 106%
CCC(CC)c1nn2c(N)c(/C=C3\C(C)=Nc4ccccc43)c(=O)nc2s1	inconclusive: 60.7%
COCCNC(=O)c1onc(CSc2ccncc2)c1C(=O)NCCOC	inconclusive: 113%
CCCCCCCC(=O)OC(CN1CCCCCC1)CN1CCCC1=O (stereo not drawn)	inconclusive: -0.59%
COc1cc(N2CCCC2)c(OC)cc1/C=c1/sc2nc3ccccc3n2c1=O	inactive: 138%
Cc1ccc(S(=O)(=O)NCCN2CCNC2=O)cc1	inconclusive: -317%
O=C(CCn1c(=S)oc2ccccc21)Nc1cccc(O)c1	active: 9.86%
COc1ccc2c(c1)CCN1C2CCN2C(=O)CCC21 (stereo not drawn)	inconclusive: 104%
CCOc1ccccc1NC(=O)N1C2CCCC1CC(NC(=O)C1CC1)C2 (stereo not drawn)	inactive: 101%
N#C/C(=C\c1ccc[nH]1)C(=O)NCC1CCCO1 (stereo not drawn)	inconclusive: 80.6%
CC(C)CCNC(=O)C1CC(c2ccc(C(F)(F)F)cc2)=NO1 (stereo not drawn)	inconclusive: 121%
O=C1/C(=C/c2ccncc2)SC(=S)N1Nc1ccccc1	inconclusive: 113%
O=C(Nc1cccc(S(=O)(=O)N2CCCC2)c1)C1CCCN1C(=O)c1cccs1 (stereo not drawn)	inconclusive: 79.4%
CC1=CC(=O)c2c(O)ccc(O)c2C1=O	inactive: 56.7%

SMILES	binding response (% of control)
CCn1c2c(c(=N)c3c1CCC3)CCCC2	inconclusive: 117%
CC(C)C[C@@H]1NC(=O)[C@H](Cc2ccccc2)N(C)C(=O)[C@H](C)NC(=O)c2ccccc2NC(=O)[C@H](Cc2ccc(O)cc2)N(C)C1=O (cyclo([2Abz]A[NMeF]L[NMeY]))	inconclusive: 39.8%
Cc1nc(N)c(Cc2ccc(Cl)cc2Cl)c(N)n1	inactive: 98.1%
CCSc1nnc(NC(=O)CCn2c(=O)oc3ccccc32)s1	inconclusive: 92.2%
CC[C@@H](C)[C@@H](C(=O)N1CCN(C(=O)OC(C)(C)C)CC1)n1cc(CCC(=O)O)nn1	inconclusive: 100%
COc1ccc(S(=O)(=O)N2CCN(C(=O)CCC3CCCC3)CC2)cc1	inactive: 97.3%
CCN(CC)c1ccc(/C=N/Nc2nn[nH]n2)cc1	inconclusive: 103%
COC(=NC(C)C)NC(C)C	inconclusive: 100%
COc1cccc(-n2cnc3c(sc4nc(N5CCOCC5)c5c(c43)CCCC5)c2=O)c1	inactive: 98.1%
NC(=O)NCCN1CCN(c2ncc(C(F)(F)F)cc2Cl)CC1	inconclusive: 101%
COc1ccc(CN2C(=O)c3cccc4cccc(c34)C2=O)cc1	inconclusive: 98.3%
COc1ccc(OCC2c3cc(OC)c(OC)cc3CCN2C(=O)C(C)C)cc1 (stereo not drawn)	inactive: 105%
CC(C)COc1ccc(C(=O)N/C(=C\c2cccc([N+](=O)[O-])c2)C(=O)O)cc1	inconclusive: 107%
O=C(CSc1nnnn1-c1ccc(Cl)c(C(=O)O)c1)NC(c1ccccc1)c1ccccc1	inconclusive: 105%
Cc1ccc(NC(=O)CCNC(=O)c2ccc([N+](=O)[O-])cc2)cc1S(=O)(=O)N(C)C	inconclusive: 95.7%
CC(C)C(=O)Nc1ccc2c(c1)C(=O)NC2=O	inactive: 97.5%
O=S(=O)(Nc1ccc(Cl)cc1)c1ccc2c(c1)CCO2	inconclusive: 61.2%
Cc1nn(-c2ccccc2)c(Cl)c1/C=N/NC(=O)CCNc1n[nH]c(=O)[nH]c1=O	inconclusive: 94.5%
COc1ccccc1NC(=O)Nc1ccc(-n2ccc(C(F)(F)F)n2)cc1	inconclusive: 72.1%
Cc1nnc2ccc(-c3ccc(NC(=O)Cc4cccs4)cc3)nn12	inconclusive: 47.1%

SMILES	binding response (% of control)
CC1(C)OC(=O)C(=CNc2ccccn2)C(=O)O1	inconclusive: 114%
COc1ccc(C2=NN(Cc3ccccc3)C3C(=O)NC(=O)C23)cc1 (stereo not drawn)	inconclusive: 95.5%
CC(C)C1COC(c2cccn2Cc2ccccc2Cl)=N1 (stereo not drawn)	inconclusive: 100%
O=[N+]([O-])c1cc(-c2ccn[nH]2)ccc1Cl	inconclusive: 90.7%
Cc1cc(NC(=O)COc2cccnc2[N+](=O)[O-])no1	inconclusive: 87.8%
O=C(O)CCC(=O)Nc1ccc(Br)cc1C(=O)c1ccc(Cl)cc1	inconclusive: 92.1%
CCO[C@H]1OC(C(=O)NC2CC2)=C[C@@H](c2ccccc2)[C@@H]1CCCO	inconclusive: 99.2%
COC(=O)c1c(C)oc(C)c1S(=O)(=O)NCc1cccs1	inconclusive: 117%
O=C(COC(=O)/C=C/c1cccs1)Nc1cccc(S(=O)(=O)N2CCCC2)c1	inactive: 100%
O=C(CCc1nnc(C2CCCCC2)o1)NCc1ccc(F)c(F)c1	inactive: 102%
Cc1ccccc1C(=O)N1CCc2c([nH]c3ccccc23)C1C(F)(F)F (stereo not drawn)	inconclusive: 118%
CCCn1c2c(c(O)c(C(=O)NCc3ccccc3)c1=O)CCCC2	inactive: 113%
CN(c1cccc(NC(=O)c2cccc([N+](=O)[O-])c2)c1)S(C)(=O)=O	inactive: 104%
CN(C)c1nnc(-c2ccc(Cl)cc2)o1	inactive: 99.4%
Cc1cc(C(C)(C)C)cc(C)c1S(=O)(=O)N1CC(=O)Nc2ccccc21	inconclusive: 212%
NS(=O)(=O)c1ccc(CCNC(=O)CSc2ncnc3ccccc23)cc1	inconclusive: 100%
O=C(CSc1ccccc1C(=O)O)NC1CCCCCC1	inconclusive: 80.9%
O=C(Nc1ccc(F)cc1)C1CC(=O)n2cnnc2N1 (stereo not drawn)	inconclusive: 87.4%

Reprinted from the entries so far for reference:
SMILES	binding response (% of control)
Cc1cc(NC(=O)COc2cccnc2[N+](=O)[O-])no1	inconclusive: 87.8%
O=C(O)CCC(=O)Nc1ccc(Br)cc1C(=O)c1ccc(Cl)cc1	inconclusive: 92.1%
CCO[C@H]1OC(C(=O)NC2CC2)=C[C@@H](c2ccccc2)[C@@H]1CCCO	inconclusive: 99.2%
